Data from paper PMC6923398.
No constants are given. Whether binding was seen depends on the method and setting. Binding seen in cells or lysates may run through a third protein. Some binding calls cover weakened binding; strength is not graded here.

Sequences of proteins named here, by UniProt entry; tags and fusion partners are left off.
UniProt Q9QWV9: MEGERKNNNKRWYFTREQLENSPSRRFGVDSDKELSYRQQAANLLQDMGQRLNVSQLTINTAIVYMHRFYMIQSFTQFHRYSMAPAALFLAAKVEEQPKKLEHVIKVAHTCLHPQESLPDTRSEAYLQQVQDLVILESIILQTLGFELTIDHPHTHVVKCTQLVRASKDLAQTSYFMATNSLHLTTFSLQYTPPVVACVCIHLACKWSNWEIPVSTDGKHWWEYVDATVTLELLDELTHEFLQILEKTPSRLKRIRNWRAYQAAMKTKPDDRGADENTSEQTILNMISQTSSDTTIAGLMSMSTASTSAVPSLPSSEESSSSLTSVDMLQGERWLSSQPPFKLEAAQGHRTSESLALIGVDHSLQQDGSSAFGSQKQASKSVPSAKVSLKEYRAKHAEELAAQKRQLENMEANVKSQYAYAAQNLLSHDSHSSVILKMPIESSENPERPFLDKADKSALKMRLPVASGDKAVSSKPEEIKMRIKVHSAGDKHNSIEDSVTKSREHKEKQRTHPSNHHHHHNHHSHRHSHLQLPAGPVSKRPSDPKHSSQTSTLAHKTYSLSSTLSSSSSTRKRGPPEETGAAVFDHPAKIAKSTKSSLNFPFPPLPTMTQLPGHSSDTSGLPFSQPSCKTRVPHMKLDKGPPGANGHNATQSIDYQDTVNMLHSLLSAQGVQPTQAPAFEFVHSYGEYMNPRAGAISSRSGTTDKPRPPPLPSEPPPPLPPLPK
UniProt Q99J95: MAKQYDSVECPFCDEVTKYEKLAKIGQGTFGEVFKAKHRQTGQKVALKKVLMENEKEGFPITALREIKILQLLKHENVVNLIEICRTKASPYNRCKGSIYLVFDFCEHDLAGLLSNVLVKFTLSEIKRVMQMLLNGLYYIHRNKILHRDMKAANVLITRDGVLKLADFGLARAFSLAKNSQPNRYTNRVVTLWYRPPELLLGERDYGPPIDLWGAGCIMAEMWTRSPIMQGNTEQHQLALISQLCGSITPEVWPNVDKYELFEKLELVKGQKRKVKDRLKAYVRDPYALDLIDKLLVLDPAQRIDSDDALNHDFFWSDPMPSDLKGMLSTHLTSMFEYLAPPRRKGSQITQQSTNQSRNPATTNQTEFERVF

Molecular target: T1, heterogeneous nuclear ribonucleoprotein L (mouse (endogenous in C2C12)) (UniProt Q8R081)
T1 sequence: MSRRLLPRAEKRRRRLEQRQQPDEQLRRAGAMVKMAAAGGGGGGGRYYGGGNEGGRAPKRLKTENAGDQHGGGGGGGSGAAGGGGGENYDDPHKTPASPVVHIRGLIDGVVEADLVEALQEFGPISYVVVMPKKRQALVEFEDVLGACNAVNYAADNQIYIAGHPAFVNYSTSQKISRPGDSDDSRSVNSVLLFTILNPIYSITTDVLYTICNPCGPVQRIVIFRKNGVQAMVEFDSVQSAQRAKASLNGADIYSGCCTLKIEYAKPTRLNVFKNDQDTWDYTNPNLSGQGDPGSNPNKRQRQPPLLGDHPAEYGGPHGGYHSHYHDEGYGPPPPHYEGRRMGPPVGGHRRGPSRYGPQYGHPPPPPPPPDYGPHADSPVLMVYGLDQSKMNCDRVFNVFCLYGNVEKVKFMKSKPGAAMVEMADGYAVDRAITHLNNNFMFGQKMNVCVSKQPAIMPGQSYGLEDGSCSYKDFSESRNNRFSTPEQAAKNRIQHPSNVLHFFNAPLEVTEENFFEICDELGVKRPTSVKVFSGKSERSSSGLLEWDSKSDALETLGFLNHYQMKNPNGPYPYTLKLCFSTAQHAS
Test: co-IP; nuclear lysates of C2C12 cells (DM D2), digested with DNase I; IP with antibodies against hnRNPL or CCNT1 (IgG control) overnight at 4 °C, Protein-G magnetic beads; washes in 20 mM HEPES pH 7.9, 0.2 M NaCl, 0.3% NP-40; western blot; also done in seRNA-1 knockdown cells (binding not affected)

| Substance | binding |
| --- | --- |
| CCNT1 (from UniProt Q9QWV9 1-724) | binds |
| CDK9 (from UniProt Q99J95 1-372) | binds |
